Where “and” joins values, the source holds several entries; their conditions need not be identical. Equal values may be shown once. Some of the results follow. Further columns of the screen follow, without active or inactive calls. Compounds called inactive in the main read-out are mostly missing here. The note in brackets gives the kind of curve behind each potency; many fits are weak.
Experiment: qHTS Assay for Modulators of Lamin A Splicing
Settings: HeLa LMNA splicing GFP/RFP minigene ratio, 48 h
Outline: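 Read-out is the ratio of GFP to DsRed2 object intensity, acquired by 488 nm laser-scanning cytometry on HeLa lamin A-EGFP minigene reporter cells. Compound incubation 48 hrs at 37 °C in Opti-MEM with 2% FBS; DMSO 0.5% final.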

[1] = measured here: GFP splicing reporter channel
[2] = measured here: RFP viability control channel

For `Nc1ccc(C2(c3ccc(N)cc3)c3ccccc3-c3ccccc32)cc1`, the AC50 [1] was 15.8 µM [rising, partial curve] and the AC50 [2] was 14.1 µM [rising, partial curve].
For `CCc1ccccc1N1C(=O)/C(=C/c2ccc(N3CCN(C)CC3)o2)C(=O)NC1=S`, the AC50 [1] was 35.5 µM [falling, single point] and the AC50 [2] was 35.5 µM [falling, single point].
In the case of `CC(=O)OC1CC[C@@]2(C)C3CC(=O)[C@]4(C)C(C(C)=O)=CCC4C3CC[C@H]2C1` (stereo partly drawn), the AC50 [1] is reported as 25.1 µM [falling, single point] and the AC50 [2] is reported as 12.6 µM [falling, partial curve].
With `CC[C@H](CO)Nc1nc(NCc2ccccc2)c2ncn(C(C)C)c2n1` the AC50 [1] was 25.1 µM [falling, partial curve, poor fit] and the AC50 [2] was 22.4 µM [falling, partial curve, poor fit].
With `Cc1ccc(NC(=O)N(Cc2ccc3c(c2)OCO3)C2CCN(Cc3ccccc3)CC2)cc1Cl` the AC50 [1] was 14.1 µM [rising, single point] and the AC50 [2] was 11.2 µM [rising, single point].
In the case of `Cc1ccccc1-n1c(O)c(/C=C/C=Nc2ccccc2)c(=O)[nH]c1=O`, the AC50 [1] is reported as 10 µM [falling, partial curve, poor fit] and the AC50 [2] is reported as 8.91 µM [falling, partial curve, poor fit].
In the case of `COP(=S)(OC)Oc1ccc(SC)c(C)c1`, the AC50 [1] is reported as 0.0355 µM [rising, full curve].
In the case of `CN1C2CCC1/C(=C/c1ccccn1)C(=O)/C2=C\c1ccccn1`, the AC50 [1] is reported as 0.891 µM [rising, partial curve].
In the case of `ClC(Cl)Cl`, the AC50 [1] is reported as 35.5 µM [falling, single point] and the AC50 [2] is reported as 28.2 µM [falling, single point].
For `C[N+](C)(C)CC(=O)O`, the AC50 [1] was 0.0316 µM [rising, full curve, poor fit] and the AC50 [2] was 0.0316 µM [rising, full curve, poor fit].
With `O=c1[nH]c2ccccc2n1CCCN1CCC(n2c(=O)[nH]c3cc(Cl)ccc32)CC1` the AC50 [1] was 39.8 nM [falling, full curve, poor fit] and 6.31 µM [falling, partial curve, poor fit] and 35.5 µM [falling, single point] and the AC50 [2] was 5.62 µM [falling, single point] and 25.1 µM [rising, single point].
With `CC(C)=CCCC(C)C1CC[C@@]2(C)C3=C(CC[C@@]12C)C1(C)CCC(O)C(C)(C)C1CC3` (stereo partly drawn) the AC50 [1] was 31.6 µM [rising, single point] and the AC50 [2] was 31.6 µM [rising, single point].
With `CCOC(=O)c1ccc(NC(=O)c2c(O)[nH]c(=O)[nH]c2=O)cc1` the AC50 [1] was 2.82 µM [falling, full curve] and the AC50 [2] was 2.82 µM [falling, full curve].
In the case of `CCCCn1c(=O)c(C(=O)Nc2nnc(C(C)C)s2)c(O)c2ccccc21`, the AC50 [2] is reported as 6.31 µM [falling, partial curve, poor fit].
With `COc1cc2c(cc1OC)[C@@H]1C(=O)c3ccc4c(c3OC1CO2)CC(C(C)C)O4` (stereo partly drawn) the AC50 [1] was 11.2 µM [falling, single point] and the AC50 [2] was 15.8 µM [falling, single point].
For `C[C@@H]1O[C@@H](O[C@H]2C[C@@H](O)[C@]3(CO)[C@H]4[C@H](O)C[C@]5(C)[C@@H](C6COC(=O)C6)CC[C@]5(O)[C@@H]4CC[C@]3(O)C2)[C@H](O)[C@H](O)[C@H]1O` (stereo partly drawn), the AC50 [1] was 0.282 µM [falling, full curve, poor fit] and the AC50 [2] was 3.98 µM [rising, full curve].
For `COc1ccc2c(c1)C13CCCCC1C(C2)N(C)CC3` (stereo not drawn), the AC50 [1] was 6.31 µM [falling, partial curve, poor fit].
With `CC(C)[N+](C)(CCC(C(N)=O)(c1ccccc1)c1ccccc1)C(C)C` the AC50 [1] was 4.47 µM [falling, partial curve, poor fit] and the AC50 [2] was 3.55 µM [falling, single point].
In the case of `O=C(CN1CC=C(c2ccccc2)CC1)Nc1c(Cl)cccc1Cl`, the AC50 [1] is reported as 11.2 µM [rising, single point] and the AC50 [2] is reported as 15.8 µM [rising, partial curve].
With `CN1CCc2cc3c(cc2[C@@H]1[C@@H]1OC(=O)c2c1ccc1c2OCO1)OCO3` the AC50 [1] was 0.282 µM [falling, full curve] and the AC50 [2] was 0.282 µM [falling, full curve].
In the case of `O=C(O)CCn1cc(C=C2C(=O)NC(=O)NC2=O)c(-c2ccc(Br)cc2)n1`, the AC50 [1] is reported as 8.91 µM [rising, partial curve, poor fit] and the AC50 [2] is reported as 8.91 µM [rising, partial curve, poor fit].
For `C#C[C@]1(O)CC[C@H]2[C@@H]3CCC4=CC(=O)CC[C@]4(C)[C@H]3CC[C@@]21C`, the AC50 [1] was 31.6 µM [falling, partial curve, poor fit] and the AC50 [2] was 0.00447 µM [falling, full curve, poor fit].
With `COc1ccc2c(c1)CCC1C2CC[C@@]2(C)C(O)CCC12` (stereo partly drawn) the AC50 [1] was 20 µM [rising, single point] and the AC50 [2] was 17.8 µM [rising, single point].
With `COc1cccc(C(=O)C2CCCN(Cc3cccc4c3OCO4)C2)c1` (stereo not drawn) the AC50 [2] was 0.0708 µM [rising, full curve, poor fit].
In the case of `O=C1C2CCCN2C(c2cccs2)N1c1ccc(Cl)cc1` (stereo not drawn), the AC50 [1] is reported as 1.26 µM [falling, full curve] and the AC50 [2] is reported as 1.12 µM [falling, full curve].
For `C/C=C(/C)C(=O)O[C@H]1C(C)=C2C([C@@H]1OC(=O)CCCCCCC)[C@@](C)(OC(C)=O)C[C@@H](OC(=O)CCC)[C@@]1(O)[C@H]2OC(=O)[C@@]1(C)O` (stereo partly drawn), the AC50 [2] was 0.0501 µM [falling, full curve].
With `O=C1NC(=O)N(c2ccccc2)C(=O)/C1=C\C=C\c1ccccc1` the AC50 [1] was 0.891 µM [falling, partial curve, poor fit] and the AC50 [2] was 5.01 µM [falling, partial curve, poor fit].
